In article PMC7819943, “Rice protein-binding microarrays: a tool to detect cis-acting elements near promoter regions in rice”:
Some of the results follow.

What follows are sequences tested against T1, OsSMF1 (Oryza sativa, UniProt Q6ZLB0 1-436) (assay: protein-binding microarray (RPBM); PBS, 2% BSA, 51.3 ng/ul salmon testes DNA, 50 uM zinc acetate, 200 nM TF, 25 C, 1 h; high values mean tight binding). Settings: protein: recombinant; tags: N-terminal polyhistidine and DsRed monomer fusion (pET32a); chain copies: 2; label: CyDye5-dUTP incorporated in the synthesized complementary strand; 3' TTTTT single-stranded linker to array surface; dsDNA, one strand shown.
T1 sequence: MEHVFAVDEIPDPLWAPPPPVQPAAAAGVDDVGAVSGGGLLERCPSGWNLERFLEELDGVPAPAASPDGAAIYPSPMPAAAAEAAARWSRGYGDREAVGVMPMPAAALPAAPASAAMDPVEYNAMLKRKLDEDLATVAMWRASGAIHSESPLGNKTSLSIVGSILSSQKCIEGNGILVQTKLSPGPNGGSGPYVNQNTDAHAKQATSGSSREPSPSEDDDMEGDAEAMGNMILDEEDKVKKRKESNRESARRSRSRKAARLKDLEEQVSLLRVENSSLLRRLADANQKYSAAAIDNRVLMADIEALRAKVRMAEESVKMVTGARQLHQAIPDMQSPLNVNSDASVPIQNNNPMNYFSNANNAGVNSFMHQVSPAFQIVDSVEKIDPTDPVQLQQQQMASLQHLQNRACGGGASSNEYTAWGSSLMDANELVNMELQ
Summary of the method: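 Transcription factors were made in E. coli BL21-CodonPlus as N-terminal fusions to a polyhistidine tag and DsRed, then purified on Ni–NTA. After primer extension with Cy5-dUTP and blocking with 2% BSA, a custom Agilent array was exposed for 1 h at 25 °C to 200 nM protein in PBS, 2% BSA, salmon testes DNA and 50 µM zinc acetate. Washed arrays were scanned on an Axon 4000B, and the binding signal is per-feature fluorescence intensity in arbitrary units.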

Row | Sequence | binding signal
1 | GGGTGATGCTGAACGCTGCAATGACTATTACTATGTTCCTCGGAGTCACCTAGTGCAG | 3200 fluorescence intensity (a.u.)
2 | AACTGCTAAGGGCCGGGGAATGCAGTTCGTTTTCGCCTGACGGAGTCACCTAGTGCAG | 12800 fluorescence intensity (a.u.)
3 | CAATAAGTGACAGATAGAAAGATAGAAAGGGGTCAAAATGCGGAGTCACCTAGTGCAG | 3550 fluorescence intensity (a.u.)
4 | TATACTCGTGTTATACATATATCAACAAAACAATAGGCCTCGGAGTCACCTAGTGCAG | 28900 fluorescence intensity (a.u.)
5 | TGTAGCACTTATGACTAATCATGGACTAATTAGGCTCAAACGGAGTCACCTAGTGCAG | 5360 fluorescence intensity (a.u.)
6 | CTCGCTCCTGTATCATCATGTGATGATGTCCCTAATACTCCGGAGTCACCTAGTGCAG | 5510 fluorescence intensity (a.u.)
7 | CATGCATCTCGGTCGTCGTCATTGCCAGATCGTCAGCGATCGGAGTCACCTAGTGCAG | 6420 fluorescence intensity (a.u.)
8 | TATGAAATATCCCATCCTATCATAGATTATTATATTACGACGGAGTCACCTAGTGCAG | 26400 fluorescence intensity (a.u.)
9 | CCGGAGGAGGAAGAACGAGCTGACAGGGTGGTGAGCTGGGCGGAGTCACCTAGTGCAG | 5020 fluorescence intensity (a.u.)
10 | CGTCACATGCCTTCTGATTCGGTTTGTTCTGGCCTTCTTGCGGAGTCACCTAGTGCAG | 3210 fluorescence intensity (a.u.)
11 | TTGCATGACTTAATACAAAATTTATATATACGTGTCCATTCGGAGTCACCTAGTGCAG | 3730 fluorescence intensity (a.u.)
12 | TACGGAACCTGTAATTTGTTTTGTTATTAGTCTACATTTACGGAGTCACCTAGTGCAG | 45800 fluorescence intensity (a.u.)
13 | GGATCAGATCGGATGTCCAGGCTGATGGGGCCGCGACGGTCGGAGTCACCTAGTGCAG | 15000 fluorescence intensity (a.u.)
14 | CTCTCCGAACCTGCGTCCGTCAGCAGGTGGGCGAGTTCGGCGGAGTCACCTAGTGCAG | 3640 fluorescence intensity (a.u.)
15 | TAAGCCTAATCACGATCACGTCATGATTTGACAATGTGTTCGGAGTCACCTAGTGCAG | 4010 fluorescence intensity (a.u.)
16 | GAGAGAATAGAGATGTGGGCATGCGGCGCAGGATGCAGGACGGAGTCACCTAGTGCAG | 37700 fluorescence intensity (a.u.)
17 | CTCCCTGCCCGCCCTGCGCAGCTCCTCCCACCGCCGCCTGCGGAGTCACCTAGTGCAG | 3270 fluorescence intensity (a.u.)
18 | CCCTCCCACGGCTGGATCCAGCTCCGCCGCCGCTGTATCTCGGAGTCACCTAGTGCAG | 3600 fluorescence intensity (a.u.)
19 | CCGGCAGCTTCACGCGACGAGGTTGCTCCGTCGTCCCGGCCGGAGTCACCTAGTGCAG | 25200 fluorescence intensity (a.u.)
20 | GCACCGCCGGCGACCTCGTGGACCTCGCCTGTCGCCACATCGGAGTCACCTAGTGCAG | 28400 fluorescence intensity (a.u.)
21 | AGAGGTACGTAAAATGACACATGTGCCTCTTCATACGCTCCGGAGTCACCTAGTGCAG | 3150 fluorescence intensity (a.u.)

An excerpt of these results, in CSV form:
Row,Sequence,binding signal
9,CCGGAGGAGGAAGAACGAGCTGACAGGGTGGTGAGCTGGGCGGAGTCACCTAGTGCAG,5020 fluorescence intensity (a.u.)
11,TTGCATGACTTAATACAAAATTTATATATACGTGTCCATTCGGAGTCACCTAGTGCAG,3730 fluorescence intensity (a.u.)
12,TACGGAACCTGTAATTTGTTTTGTTATTAGTCTACATTTACGGAGTCACCTAGTGCAG,45800 fluorescence intensity (a.u.)
15,TAAGCCTAATCACGATCACGTCATGATTTGACAATGTGTTCGGAGTCACCTAGTGCAG,4010 fluorescence intensity (a.u.)
19,CCGGCAGCTTCACGCGACGAGGTTGCTCCGTCGTCCCGGCCGGAGTCACCTAGTGCAG,25200 fluorescence intensity (a.u.)
20,GCACCGCCGGCGACCTCGTGGACCTCGCCTGTCGCCACATCGGAGTCACCTAGTGCAG,28400 fluorescence intensity (a.u.)
21,AGAGGTACGTAAAATGACACATGTGCCTCTTCATACGCTCCGGAGTCACCTAGTGCAG,3150 fluorescence intensity (a.u.)

Carrying on.

Row | Sequence | binding signal
22 | TCTTAGGCTGTGTTAGAGGGAGAGGAGATTGAGAAGATTGCGGAGTCACCTAGTGCAG | 3430 fluorescence intensity (a.u.)
23 | CGACGTCGGCGAGGGAGGGCTTCCTGGGCACGTCGGCGAGCGGAGTCACCTAGTGCAG | 3150 fluorescence intensity (a.u.)
24 | TGTAACTATTCTCGCGACACGTACACACCAACACATAAACCGGAGTCACCTAGTGCAG | 4520 fluorescence intensity (a.u.)
25 | CCGTCTGCCACGTCATTTTCGCCGCCCTCTGGGAGGGCGACGGAGTCACCTAGTGCAG | 12900 fluorescence intensity (a.u.)
26 | GGGTGATTTGTTGTAATGACGCGTGTGGTGGGGTGTGTGGCGGAGTCACCTAGTGCAG | 8170 fluorescence intensity (a.u.)
27 | GGTCAGTATCTCAAATCTACTCATCATTCTGAAAATCTTGCGGAGTCACCTAGTGCAG | 3260 fluorescence intensity (a.u.)
28 | CTTCCTTTGATAATATAATATATAGATAAATTCTCTAAGACGGAGTCACCTAGTGCAG | 3200 fluorescence intensity (a.u.)
29 | TTATTCTGTCAAGAACAATTTCGCCACTAGATCGGTTTGTCGGAGTCACCTAGTGCAG | 25800 fluorescence intensity (a.u.)
30 | TGAGCCATCATTTTAGTTCGTGGTGTACTGCAAAGAGCCACGGAGTCACCTAGTGCAG | 25000 fluorescence intensity (a.u.)
31 | CGAGGAATTAGGTTATGGTTGAGAAATGCTGACAATGTGACGGAGTCACCTAGTGCAG | 3960 fluorescence intensity (a.u.)
32 | TCCTTTGGAACATAAAAGTGACGTAGGCATGCAAATTTGTCGGAGTCACCTAGTGCAG | 13700 fluorescence intensity (a.u.)
33 | CGAGCGGGTGCGGGCGTGGCGATCGATCGAACGGCAAACCCGGAGTCACCTAGTGCAG | 3420 fluorescence intensity (a.u.)
34 | CCTTTTACTACCAAATGACGTATTATCCGTATTTGACAAACGGAGTCACCTAGTGCAG | 3370 fluorescence intensity (a.u.)
35 | TGGTCAAATATGTGTAGTCAACAACGTCATCTATTGAAAACGGAGTCACCTAGTGCAG | 3580 fluorescence intensity (a.u.)
36 | GCGGTAGCCAAGCCTGCCACGTCAGCTCTCGCGCAACGTCCGGAGTCACCTAGTGCAG | 34600 fluorescence intensity (a.u.)
37 | ATGCCTCACTGATGACGGTATCCCGTATGACCCGTCAGAGCGGAGTCACCTAGTGCAG | 5510 fluorescence intensity (a.u.)
38 | TGAAACCATGGCCCACCCATCAGTCACGTCACGTCGGGACCGGAGTCACCTAGTGCAG | 4040 fluorescence intensity (a.u.)
39 | TCGATCGATCGAATCGATTCCCCTCTCCCGAATCATCCCCCGGAGTCACCTAGTGCAG | 15600 fluorescence intensity (a.u.)
40 | AGAGAGAGAGAGAGTGGTGACATGGTCACCTGACATGTGGCGGAGTCACCTAGTGCAG | 5460 fluorescence intensity (a.u.)
41 | TGGTTCTCACACTGCTCAAAAGCTGGCCTCTTTATTCAGTCGGAGTCACCTAGTGCAG | 3220 fluorescence intensity (a.u.)
42 | GCGCGAGTCATTAGTGCGTCACTAGCTCGAGCGCCACCTACGGAGTCACCTAGTGCAG | 4140 fluorescence intensity (a.u.)
